The target of test [1] is T1, GI fused to a Venus (YFP) fragment for BiFC (Arabidopsis thaliana) (UniProt Q9SQI2).
T1 sequence: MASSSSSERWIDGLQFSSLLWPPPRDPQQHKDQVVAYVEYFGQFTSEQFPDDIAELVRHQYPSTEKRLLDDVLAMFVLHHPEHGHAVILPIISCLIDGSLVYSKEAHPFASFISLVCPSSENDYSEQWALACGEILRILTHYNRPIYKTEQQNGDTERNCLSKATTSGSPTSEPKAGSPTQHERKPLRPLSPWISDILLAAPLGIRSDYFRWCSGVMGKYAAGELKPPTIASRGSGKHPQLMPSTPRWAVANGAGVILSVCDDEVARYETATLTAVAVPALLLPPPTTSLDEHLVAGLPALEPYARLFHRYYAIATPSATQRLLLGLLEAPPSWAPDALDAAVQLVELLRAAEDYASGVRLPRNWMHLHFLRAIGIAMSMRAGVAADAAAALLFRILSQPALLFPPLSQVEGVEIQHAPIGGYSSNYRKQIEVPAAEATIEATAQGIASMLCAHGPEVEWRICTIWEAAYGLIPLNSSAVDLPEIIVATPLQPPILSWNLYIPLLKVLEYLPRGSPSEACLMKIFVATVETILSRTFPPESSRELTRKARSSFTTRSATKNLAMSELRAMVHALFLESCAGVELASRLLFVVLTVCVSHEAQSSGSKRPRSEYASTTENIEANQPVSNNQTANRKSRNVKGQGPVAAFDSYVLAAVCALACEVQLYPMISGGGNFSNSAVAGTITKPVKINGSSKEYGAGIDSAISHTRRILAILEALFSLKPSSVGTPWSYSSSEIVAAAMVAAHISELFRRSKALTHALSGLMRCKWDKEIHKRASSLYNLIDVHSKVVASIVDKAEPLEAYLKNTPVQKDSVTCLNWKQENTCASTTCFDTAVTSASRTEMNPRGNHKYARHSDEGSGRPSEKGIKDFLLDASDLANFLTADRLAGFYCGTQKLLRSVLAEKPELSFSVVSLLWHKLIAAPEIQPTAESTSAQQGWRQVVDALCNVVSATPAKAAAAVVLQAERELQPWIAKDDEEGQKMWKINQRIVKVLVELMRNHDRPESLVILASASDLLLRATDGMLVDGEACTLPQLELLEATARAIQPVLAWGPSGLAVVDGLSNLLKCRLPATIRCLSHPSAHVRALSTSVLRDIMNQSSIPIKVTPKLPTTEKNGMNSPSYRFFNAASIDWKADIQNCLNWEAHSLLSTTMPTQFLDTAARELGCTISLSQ
Put plainly: split reporter.

The target of test [2] is T2, GIGANTEA (GI), full length, yeast two-hybrid fusion (Arabidopsis thaliana) (UniProt Q9SQI2).
T2 sequence: T1 sequence
Put plainly: two-hybrid.

No constants are given. Whether binding was seen depends on the method and setting. For some of these results: In cells and extracts the contact can be indirect. Some binding calls cover weakened binding; strength is not graded here. Tags and fused reporters may be left off the sequences shown.

B1: UBP13 fused to a Venus (YFP) fragment for BiFC (enzyme, UniProt Q84WU2 1-1115)
chain: MTMMTPPPLDQQEDEEMLVPNPDLVEGPQPMEVAQTDPAATAVENPPPEDPPSLKFTWTIPMFTRLNTRKHYSDVFVVGGYKWRILIFPKGNNVDHLSMYLDVADAANLPYGWSRYSQFSLAVVNQVNNRYSIRKETQHQFNARESDWGFTSFMPLSELYEPTRGYLVNDTVLIEAEVAVRKVLDYWSYDSKKETGFVGLKNQGATCYMNSLLQTLYHIPYFRKAVYHMPTTENDAPTASIPLALQSLFYKLQYNDTSVATKELTKSFGWDTYDSFMQHDVQELNRVLCEKLEDKMKGTVVEGTIQKLFEGHHMNYIECINVDYKSTRKESFYDLQLDVKGCKDVYASFDKYVEVERLEGDNKYHAEGHDLQDAKKGVLFIDFPPVLQLQLKRFEYDFMRDTMVKINDRYEFPLQLDLDREDGRYLSPDADKSVRNLYTLHSVLVHSGGVHGGHYYAFIRPTLSDQWYKFDDERVTKEDVKRALEEQYGGEEELPQNNPGFNNPPFKFTKYSNAYMLVYIRESDKDKIICNVDEKDIAEHLRVRLKKEQEEKEDKRKYKAQAHLFTTIKVARDDDITEQIGKNIYFDLVDHEKVRSFRIQKQTPFQQFKEEVAKEFGVPVQLQRFWIWAKRQNHTYRPNRPLSPNEELQTVGQIREASNKANNAELKLFLEIERGPDDLPIPPPEKTSEDILLFFKLYDPENAVLRYVGRLMVKSSSKPMDIVGQLNKMAGFAPDEEIELFEEIKFEPCVMCEQIDKKTSFRLCQIEDGDIICYQKPLSIEESEFRYPDVPSFLEYVQNRELVRFRTLEKPKEDEFTMELSKLHTYDDVVERVAEKLGLDDPSKLRLTSHNCYSQQPKPQPIKYRGVDHLSDMLVHYNQTSDILYYEVLDIPLPELQGLKTLKVAFHSATKDEVIIHNIRLPKQSTVGDVINELKTKVELSHQDAELRLLEVFFHKIYKIFPSTERIENINDQYWTLRAEEIPEEEKNIGPNDRLIHVYHFTKEAGQNQQVQNFGEPFFLVIHEGETLEEIKTRIQKKLHVPDEDFAKWKFASFSMGRPDYLLDTDVVYNRFQRRDVYGAWEQYLGLEHIDNAPKRAYAANQNRHAYEKPVKIYN
Consider B1, for which the binding result in test [1] is “binds”.

B2: UBP13 protease domain fragment, yeast two-hybrid fusion (domain or fragment, UniProt Q84WU2 198-522)
chain: VGLKNQGATCYMNSLLQTLYHIPYFRKAVYHMPTTENDAPTASIPLALQSLFYKLQYNDTSVATKELTKSFGWDTYDSFMQHDVQELNRVLCEKLEDKMKGTVVEGTIQKLFEGHHMNYIECINVDYKSTRKESFYDLQLDVKGCKDVYASFDKYVEVERLEGDNKYHAEGHDLQDAKKGVLFIDFPPVLQLQLKRFEYDFMRDTMVKINDRYEFPLQLDLDREDGRYLSPDADKSVRNLYTLHSVLVHSGGVHGGHYYAFIRPTLSDQWYKFDDERVTKEDVKRALEEQYGGEEELPQNNPGFNNPPFKFTKYSNAYMLVYIRE
Regarding B2, in test [2], the binding result was “no binding”.

B3: UBP12 fused to a Venus (YFP) fragment for BiFC (enzyme, UniProt Q9FPT1 1-1116)
chain: MTMMTPPPVDQPEDEEMLVPNSDLVDGPAQPMEVTQPETAASTVENQPAEDPPTLKFTWTIPNFSRQNTRKHYSDVFVVGGYKWRILIFPKGNNVDHLSMYLDVSDAASLPYGWSRYAQFSLAVVNQIHTRYTVRKETQHQFNARESDWGFTSFMPLSELYDPSRGYLVNDTVLVEAEVAVRKVLDYWSYDSKKETGFVGLKNQGATCYMNSLLQTLYHIPYFRKAVYHMPTTENDAPTASIPLALQSLFYKLQYNDTSVATKELTKSFGWDTYDSFMQHDVQELNRVLCEKLEDKMKGTVVEGTIQQLFEGHHMNYIECINVDFKSTRKESFYDLQLDVKGCKDVYASFDKYVEVERLEGDNKYHAEGHGLQDAKKGVLFIDFPPVLQLQLKRFEYDFMRDTMVKINDRYEFPLELDLDREDGKYLSPDADRSVRNLYTLHSVLVHSGGVHGGHYYAFIRPTLSDQWYKFDDERVTKEDLKRALEEQYGGEEELPQTNPGFNNNPPFKFTKYSNAYMLVYIRESDKDKIICNVDEKDIAEHLRVRLKKEQEEKEDKRRYKAQAHLYTIIKVARDEDLKEQIGKDIYFDLVDHDKVRSFRIQKQTPFQQFKEEVAKEFGVPVQLQRFWIWAKRQNHTYRPNRPLTPQEELQPVGQIREASNKANTAELKLFLEVEHLDLRPIPPPEKSKEDILLFFKLYDPEKAVLSYAGRLMVKSSSKPMDITGKLNEMVGFAPDEEIELFEEIKFEPCVMCEHLDKKTSFRLCQIEDGDIICFQKPLVNKEIECLYPAVPSFLEYVQNRQLVRFRALEKPKEDEFVLELSKQHTYDDVVEKVAEKLGLDDPSKLRLTSHNCYSQQPKPQPIKYRGVDHLSDMLVHYNQTSDILYYEVLDIPLPELQGLKTLKVAFHHATKEEVVIHNIRLPKQSTVGDVINELKTKVELSHPDAELRLLEVFYHKIYKIFPSTERIENINDQYWTLRAEEIPEEEKNIGPNDRLILVYHFAKETGQNQQVQNFGEPFFLVIHEGETLEEIKNRIQKKLHVSDEDFAKWKFAFMSMGRPEYLQDTDVVYNRFQRRDVYGAFEQYLGLEHADTTPKRAYAANQNRHAYEKPVKIYN
For B3, the binding entry in test [1] is reported as “binds”.

B4: UBP12 protease domain fragment, yeast two-hybrid fusion (domain or fragment, UniProt Q9FPT1 199-524)
chain: VGLKNQGATCYMNSLLQTLYHIPYFRKAVYHMPTTENDAPTASIPLALQSLFYKLQYNDTSVATKELTKSFGWDTYDSFMQHDVQELNRVLCEKLEDKMKGTVVEGTIQQLFEGHHMNYIECINVDFKSTRKESFYDLQLDVKGCKDVYASFDKYVEVERLEGDNKYHAEGHGLQDAKKGVLFIDFPPVLQLQLKRFEYDFMRDTMVKINDRYEFPLELDLDREDGKYLSPDADRSVRNLYTLHSVLVHSGGVHGGHYYAFIRPTLSDQWYKFDDERVTKEDLKRALEEQYGGEEELPQTNPGFNNNPPFKFTKYSNAYMLVYIRE
For the molecule B4, in test [2], the binding result is reported as “no binding”.

Source of the values: article doi:10.1101/611533.
